# Experimental data: article PMC11039712
# Protein sequences, listed by entry. Tags and fused reporters are not part of them. Residues count along the entry.
# UniProt O75306, residues 34-463: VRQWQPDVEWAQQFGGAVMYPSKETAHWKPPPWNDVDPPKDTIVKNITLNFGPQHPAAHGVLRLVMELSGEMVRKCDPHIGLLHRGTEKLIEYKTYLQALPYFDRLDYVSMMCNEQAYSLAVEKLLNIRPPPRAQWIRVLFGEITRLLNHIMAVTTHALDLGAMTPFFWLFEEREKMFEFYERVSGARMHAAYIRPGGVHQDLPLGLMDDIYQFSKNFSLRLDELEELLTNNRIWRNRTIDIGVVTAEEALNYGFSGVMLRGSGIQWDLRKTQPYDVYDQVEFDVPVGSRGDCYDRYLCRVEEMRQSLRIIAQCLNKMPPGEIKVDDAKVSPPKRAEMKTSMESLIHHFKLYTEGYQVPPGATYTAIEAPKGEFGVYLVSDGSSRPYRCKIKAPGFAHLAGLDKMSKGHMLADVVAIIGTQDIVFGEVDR
# UniProt O14818: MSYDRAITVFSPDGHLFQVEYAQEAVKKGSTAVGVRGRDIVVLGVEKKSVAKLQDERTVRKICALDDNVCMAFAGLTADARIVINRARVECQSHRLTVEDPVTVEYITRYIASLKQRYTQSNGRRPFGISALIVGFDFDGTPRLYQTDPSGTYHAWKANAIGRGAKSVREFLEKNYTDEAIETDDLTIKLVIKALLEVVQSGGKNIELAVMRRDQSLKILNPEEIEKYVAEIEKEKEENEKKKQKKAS
# UniProt Q8WVM0, residues 28-346: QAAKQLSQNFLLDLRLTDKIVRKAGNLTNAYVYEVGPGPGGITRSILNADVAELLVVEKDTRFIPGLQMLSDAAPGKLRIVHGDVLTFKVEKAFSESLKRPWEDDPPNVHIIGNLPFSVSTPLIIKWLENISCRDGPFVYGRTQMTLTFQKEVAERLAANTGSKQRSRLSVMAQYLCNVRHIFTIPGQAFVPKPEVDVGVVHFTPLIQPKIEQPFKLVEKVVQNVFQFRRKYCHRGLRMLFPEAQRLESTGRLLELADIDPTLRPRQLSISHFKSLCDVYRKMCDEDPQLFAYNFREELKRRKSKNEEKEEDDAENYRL
# No constants are given. Whether binding was seen depends on the method and setting. In cells and extracts the contact can be indirect. Here binding means that the protein was enriched with, or labelled near, the bait; the list need not be complete.
# Target: NDUFS2, bait of the co-IP for protein mass spectrometry (UniProt O75306)
# Experiment: affinity purification with mass spectrometry; co-IP to capture NDUFS2 interactors, precipitate analysed by protein mass spectrometry; cells not stated (pancreatic cancer; legend of Fig. 3A: after overexpression of NDUFS2)
row,binding,Molecule
1,binds,proteasome subunit alpha type-7 (from UniProt O14818 1-248)
2,binds,"mitochondrial import inner membrane translocase subunit Tim13 (protein, UniProt Q9Y5L4 1-95) MEGGFGSDFGGSGSGKLDPGLIMEQVKVQIAVANAQELLQRMTDKCFRKCIGKPGGSLDNSEQKCIAMCMDRYMDAWNTVSRAYNSRLQRERANM"
3,binds,"mitochondrial 2-oxoglutarate/malate carrier protein isoform 1 (protein, UniProt Q02978 1-314) MAATASAGAGGIDGKPRTSPKSVKFLFGGLAGMGATVFVQPLDLVKNRMQLSGEGAKTREYKTSFHALTSILKAEGLRGIYTGLSAGLLRQATYTTTRLGIYTVLFERLTGADGTPPGFLLKAVIGMTAGATGAFVGTPAEVALIRMTADGRLPADQRRGYKNVFNALIRITREEGVLTLWRGCIPTMARAVVVNAAQLASYSQSKQFLLDSGYFSDNILCHFCASMISGLVTTAASMPVDIAKTRIQNMRMIDGKPEYKNGLDVLFKVVRYEGFFSLWKGFTPYYARLGPHTVLTFIFLEQMNKAYKRLFLSG"

# Further lines, the molecule ahead of its results:
row,Molecule,binding
1,"dimethyladenosine transferase 1, mitochondrial (from UniProt Q8WVM0 28-346)",binds
2,"long-chain specific acyl-CoA dehydrogenase, mitochondrial (protein, UniProt P28330 31-430) GGEERLETPSAKKLTDIGIRRIFSPEHDIFRKSVRKFFQEEVIPHHSEWEKAGEVSREVWEKAGKQGLLGVNIAEHLGGIGGDLYSAAIVWEEQAYSNCSGPGFSIHSGIVMSYITNHGSEEQIKHFIPQMTAGKCIGAIAMTEPGAGSDLQGIKTNAKKDGSDWILNGSKVFISNGSLSDVVIVVAVTNHEAPSPAHGISLFLVENGMKGFIKGRKLHKMGLKAQDTAELFFEDIRLPASALLGEENKGFYYIMKELPQERLLIADVAISASEFMFEETRNYVKQRKAFGKTVAHLQTVQHKLAELKTHICVTRAFVDNCLQLHEAKRLDSATACMAKYWASELQNSVAYDCVQLHGGWGYMWEYPIAKAYVDARVQPIYGGTNEIMKELIAREIVFDK",binds
3,"hydroxymethylglutaryl-CoA synthase, mitochondrial isoform 1 (protein, UniProt P54868 38-508) TASAVPLAKTDTWPKDVGILALEVYFPAQYVDQTDLEKYNNVEAGKYTVGLGQTRMGFCSVQEDINSLCLTVVQRLMERIQLPWDSVGRLEVGTETIIDKSKAVKTVLMELFQDSGNTDIEGIDTTNACYGGTASLFNAANWMESSSWDGRYAMVVCGDIAVYPSGNARPTGGAGAVAMLIGPKAPLALERGLRGTHMENVYDFYKPNLASEYPIVDGKLSIQCYLRALDRCYTSYRKKIQNQWKQAGSDRPFTLDDLQYMIFHTPFCKMVQKSLARLMFNDFLSASSDTQTSLYKGLEAFGGLKLEDTYTNKDLDKALLKASQDMFDKKTKASLYLSTHNGNMYTSSLYGCLASLLSHHSAQELAGSRIGAFSYGSGLAASFFSFRVSQDAAPGSPLDKLVSSTSDLPKRLASRKCVSPEEFTEIMNQREQFYHKVNFSPPGDTNSLFPGTWYLERVDEQHRRKYARRPV",binds
4,"alcohol dehydrogenase [NADP(+)] (protein, UniProt P14550 1-325) MAASCVLLHTGQKMPLIGLGTWKSEPGQVKAAVKYALSVGYRHIDCAAIYGNEPEIGEALKEDVGPGKAVPREELFVTSKLWNTKHHPEDVEPALRKTLADLQLEYLDLYLMHWPYAFERGDNPFPKNADGTICYDSTHYKETWKALEALVAKGLVQALGLSNFNSRQIDDILSVASVRPAVLQVECHPYLAQNELIAHCQARGLEVTAYSPLGSSDRAWRDPDEPVLLEEPVVLALAEKYGRSPAQILLRWQVQRKVICIPKSITPSRILQNIKVFDFTFSPEEMKQLNALNKNWRYIVPMLTVDGKRVPRDAGHPLYPFNDPY",binds
